The target in assay [1] is T1, Escherichia coli RecA recombinase, as RecA-ssDNA filament (E. coli), P0A7G6.
T1 chain: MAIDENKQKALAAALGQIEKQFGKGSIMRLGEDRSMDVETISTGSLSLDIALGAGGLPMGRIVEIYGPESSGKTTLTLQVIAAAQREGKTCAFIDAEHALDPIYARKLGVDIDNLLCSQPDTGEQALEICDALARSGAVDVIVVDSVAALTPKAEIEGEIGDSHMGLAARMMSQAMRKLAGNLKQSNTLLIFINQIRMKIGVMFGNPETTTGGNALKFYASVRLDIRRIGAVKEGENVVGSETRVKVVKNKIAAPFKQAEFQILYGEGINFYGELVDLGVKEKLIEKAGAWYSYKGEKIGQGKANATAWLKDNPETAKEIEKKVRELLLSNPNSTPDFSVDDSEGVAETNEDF
Put plainly: optical tweezers. As to conditions: remark: other sources report otherwise.

Assay [2] concerns the target T1, Escherichia coli RecA recombinase, as …. Put plainly: optical tweezers. As to conditions: remark: other sources report otherwise.

These are yes or no findings as the source states them, for the method shown.

B1: Escherichia coli SMC-like RecN protein, P05824 1-553 (protein)
chain: MLAQLTISNFAIVRELEIDFHSGMTVITGETGAGKSIAIDALGLCLGGRAEADMVRTGAARADLCARFSLKDTPAALRWLEENQLEDGHECLLRRVISSDGRSRGFINGTAVPLSQLRELGQLLIQIHGQHAHQLLTKPEHQKFLLDGYANETSLLQEMTARYQLWHQSCRDLAHHQQLSQERAARAELLQYQLKELNEFNPQPGEFEQIDEEYKRLANSGQLLTTSQNALALMADGEDANLQSQLYTAKQLVSELIGMDSKLSGVLDMLEEATIQIAEASDELRHYCDRLDLDPNRLFELEQRISKQISLARKHHVSPEALPQYYQSLLEEQQQLDDQADSQETLALAVTKHHQQALEIARALHQQRQQYAEELAQLITDSMHALSMPHGQFTIDVKFDEHHLGADGADRIEFRVTTNPGQPMQPIAKVASGGELSRIALAIQVITARKMETPALIFDEVDVGISGPTAAVVGKLLRQLGESTQVMCVTHLPQVAGCGHQHYFVSKETDGAMTETHMQSLNKKARLQELARLLGGSEVTRNTLANAKELLAA
Take B1: the binding result in assay [1] and in assay [2] was “no binding (tested: 500 nM)” in each case.

The values are drawn from publication doi:10.1101/2025.05.13.653842.
